Test results reported in patent US20060257938A1, “Method of screening for drugs that block ligand binding to a lipid binding protein” (priority 2005, published 2006).
Substitutions are numbered along the chain they refer to.

B1: 34E, 72A (protein, listed as Rattus norvegicus)
chain: AFDGTWKVDRNENYEKFMEKMGINVVKRKLGAHENLKLTITQEGNKFTVKESSNFRNIDVVFELGVDFAYSAADGTELTGTWTMEGNKLVGKFKRVDNGKELIAVREISGNELIQTYTYEGVEAKRIFKKE
modifications: PEPTIDE (1)...(131) wild-type rat intestinal fatty acid binding protein
B2: 23N1, 72A (protein, listed as Rattus norvegicus)
chain: B1 chain with I23N, E34D
modifications: PEPTIDE (1)...(131) wild-type rat intestinal fatty acid binding protein
B3: 23P1, 72A (protein, listed as Rattus norvegicus)
chain: B1 chain with I23P, E34D
modifications: PEPTIDE (1)...(131) wild-type rat intestinal fatty acid binding protein
B4: 23R3, 72A (protein, listed as Rattus norvegicus)
chain: B1 chain with I23R, E34D
modifications: PEPTIDE (1)...(131) wild-type rat intestinal fatty acid binding protein
B5: 23T1, 72A (protein, listed as Rattus norvegicus)
chain: B1 chain with I23T, E34D
modifications: PEPTIDE (1)...(131) wild-type rat intestinal fatty acid binding protein
B6: 23V2, 72A (protein, listed as Rattus norvegicus)
chain: B1 chain with I23V, E34D
modifications: PEPTIDE (1)...(131) wild-type rat intestinal fatty acid binding protein
B7: 23W1, 72A (protein, listed as Rattus norvegicus)
chain: B1 chain with I23W, E34D
modifications: PEPTIDE (1)...(131) wild-type rat intestinal fatty acid binding protein
B8: 23Y1, 72A (protein, listed as Rattus norvegicus)
chain: B1 chain with I23Y, E34D
modifications: PEPTIDE (1)...(131) wild-type rat intestinal fatty acid binding protein
B9: 31C1, 72A (protein, listed as Rattus norvegicus)
chain: B1 chain with G31C, E34D
modifications: PEPTIDE (1)...(131) wild-type rat intestinal fatty acid binding protein
B10: 31D2, 72A (protein, listed as Rattus norvegicus)
chain: B1 chain with G31D, E34D
modifications: PEPTIDE (1)...(131) wild-type rat intestinal fatty acid binding protein
B11: 31E3, 72A (protein, listed as Rattus norvegicus)
chain: B1 chain with G31E, E34D
modifications: PEPTIDE (1)...(131) wild-type rat intestinal fatty acid binding protein
B12: 31F2, 72A (protein, listed as Rattus norvegicus)
chain: B1 chain with G31F, E34D
modifications: PEPTIDE (1)...(131) wild-type rat intestinal fatty acid binding protein
B13: 31I1, 72A (protein, listed as Rattus norvegicus)
chain: B1 chain with G31I, E34D
modifications: PEPTIDE (1)...(131) wild-type rat intestinal fatty acid binding protein
B14: 31K2, 72A (protein, listed as Rattus norvegicus)
chain: B1 chain with G31K, E34D
modifications: PEPTIDE (1)...(131) wild-type rat intestinal fatty acid binding protein
B15: 31M2, 72A (protein, listed as Rattus norvegicus)
chain: B1 chain with G31M, E34D
modifications: PEPTIDE (1)...(131) wild-type rat intestinal fatty acid binding protein
B16: 31N2, 72A (protein, listed as Rattus norvegicus)
chain: B1 chain with G31N, E34D
modifications: PEPTIDE (1)...(131) wild-type rat intestinal fatty acid binding protein
B17: 31P1, 72A (protein, listed as Rattus norvegicus)
chain: B1 chain with G31P, E34D
modifications: PEPTIDE (1)...(131) wild-type rat intestinal fatty acid binding protein
B18: 31Q3, 72A (protein, listed as Rattus norvegicus)
chain: B1 chain with G31Q, E34D
modifications: PEPTIDE (1)...(131) wild-type rat intestinal fatty acid binding protein
B19: 31R1, 72A (protein, listed as Rattus norvegicus)
chain: B1 chain with G31R, E34D
modifications: PEPTIDE (1)...(131) wild-type rat intestinal fatty acid binding protein
B20: 31T2, 72A (protein, listed as Rattus norvegicus)
chain: B1 chain with G31T, E34D
modifications: PEPTIDE (1)...(131) wild-type rat intestinal fatty acid binding protein
B21: 31V2, 72A (protein, listed as Rattus norvegicus)
chain: B1 chain with G31V, E34D
modifications: PEPTIDE (1)...(131) wild-type rat intestinal fatty acid binding protein
B22: 31W2, 72A (protein, listed as Rattus norvegicus)
chain: B1 chain with G31W, E34D
modifications: PEPTIDE (1)...(131) wild-type rat intestinal fatty acid binding protein
B23: 31Y1, 72A (protein, listed as Rattus norvegicus)
chain: B1 chain with G31Y, E34D
modifications: PEPTIDE (1)...(131) wild-type rat intestinal fatty acid binding protein
B24: 31Y2, 72A (protein, listed as Rattus norvegicus)
chain: B1 chain with G31Y, E34D
modifications: PEPTIDE (1)...(131) wild-type rat intestinal fatty acid binding protein
B25: 34A, 72A (protein, listed as Rattus norvegicus)
chain: B1 chain with E34A
modifications: PEPTIDE (1)...(131) wild-type rat intestinal fatty acid binding protein
B26: 34C, 72A (protein, listed as Rattus norvegicus)
chain: B1 chain with E34C
modifications: PEPTIDE (1)...(131) wild-type rat intestinal fatty acid binding protein
B27: 34G, 72A (protein, listed as Rattus norvegicus)
chain: B1 chain with E34G
modifications: PEPTIDE (1)...(131) wild-type rat intestinal fatty acid binding protein
B28: 34H, 72A (protein, listed as Rattus norvegicus)
chain: B1 chain with E34H
modifications: PEPTIDE (1)...(131) wild-type rat intestinal fatty acid binding protein
B29: 34K, 72A (protein, listed as Rattus norvegicus)
chain: B1 chain with E34K
modifications: PEPTIDE (1)...(131) wild-type rat intestinal fatty acid binding protein
B30: 34N, 72A (protein, listed as Rattus norvegicus)
chain: B1 chain with E34N
modifications: PEPTIDE (1)...(131) wild-type rat intestinal fatty acid binding protein
B31: 34P, 72A (protein, listed as Rattus norvegicus)
chain: B1 chain with E34P
modifications: PEPTIDE (1)...(131) wild-type rat intestinal fatty acid binding protein
B32: 34Q, 72A (protein, listed as Rattus norvegicus)
chain: B1 chain with E34Q
modifications: PEPTIDE (1)...(131) wild-type rat intestinal fatty acid binding protein
B33: 34R, 72A (protein, listed as Rattus norvegicus)
chain: B1 chain with E34R
modifications: PEPTIDE (1)...(131) wild-type rat intestinal fatty acid binding protein
B34: 34S, 72A (protein, listed as Rattus norvegicus)
chain: B1 chain with E34S
modifications: PEPTIDE (1)...(131) wild-type rat intestinal fatty acid binding protein
B35: 34T, 72A (protein, listed as Rattus norvegicus)
chain: B1 chain with E34T
modifications: PEPTIDE (1)...(131) wild-type rat intestinal fatty acid binding protein

Test: Baseline fluorescence ratio Ro of probe in absence of analyte
Settings: baseline fluorescence ratio of probe

B1 showed a Ro of 0.317.

Same assay, conditions: baseline fluorescence ratio of probe, no fatty acid

Point of comparison: B2, AvgOfRo 0.22. Against it:
- B3 — higher, 0.32
- B4 — lower, 0.20
- B5 — lower, 0.16
- B6 — lower, 0.17
- B7 — higher, 0.45
- B8 — higher, 0.26
- B9 — higher, 0.30
- B10 — higher, 0.31
- B11 — higher, 0.35
- B12 — higher, 0.43
- B13 — higher, 0.68
- B14 — higher, 0.26
- B15 — higher, 0.81
- B16 — higher, 0.36
- B17 — higher, 0.27
- B18 — higher, 0.38
- B19 — lower, 0.18
- B20 — higher, 0.37
- B21 — higher, 0.61
- B22 — higher, 0.46
- B23 — higher, 0.48
- B24 — higher, 0.69
- B25 — higher, 0.35
- B26 — higher, 0.44
- B1 — higher, 0.32
- B27 — higher, 0.51
- B28 — higher, 0.37
- B29 — higher, 0.48
- B30 — lower, 0.16
- B31 — higher, 0.42
- B32 — higher, 0.37
- B33 — higher, 0.52
- B34 — higher, 0.36
- B35 — higher, 0.34
